Data published in patent US20120101257A1 (UNIVERSITE DE MONTREAL, priority 2009, published 2012).

Test: general procedure: Fmoc solid-phase peptide synthesis; Rink amide resin; Rink amide MBHA resin
Settings: whole synthesis; for crude mass: TFA salt
[1] = UV 214, formic acid salt (crude: TFA salt), cyclic, sequence written open
[2] = analytical RP-HPLC (UV 214), formic acid salt (crude: TFA salt), cyclic, sequence written open
[3] = formic acid salt (crude: TFA salt), cyclic, sequence written open
[4] = 214 nm, formic acid salt (crude: TFA salt)
[5] = formic acid salt (crude: TFA salt)
[6] = 214 nm, formic acid salt (crude: TFA salt), cyclic, sequence written open
[7] = 214 nm, formic acid salt (crude: TFA salt), cyclic, sequence written open, run 1
[8] = 214 nm, formic acid salt (crude: TFA salt), cyclic, sequence written open, run 2
[9] = on Fmoc loading of Rink resin, formic acid salt (crude: TFA salt), cyclic, sequence written open
[10] = analytical RP-HPLC (UV 214), formic acid salt (crude: TFA salt), cyclic, sequence written open, run 1
[11] = analytical RP-HPLC (UV 214), formic acid salt (crude: TFA salt), cyclic, sequence written open, run 2
[12] = formic acid salt (crude: TFA salt), cyclic, sequence written open, run 1
[13] = formic acid salt (crude: TFA salt), cyclic, sequence written open, run 2

Substance | final HPLC purity [1] [%] | isolated yield [3] [%] | crude HPLC purity [4] | final HPLC purity [4] [%] | isolated yield [5] [%] | final HPLC purity [6] [%] | also measured
His-D-Trp-Ala-Trp-(S)-Agl-Lys-NH2 | >99 | 13 | – | – | – | – | crude HPLC purity [2]: 44%
His-(S)-Bgl-Ala-Trp-D-Phe-Lys-NH2 | 91 | 12 | – | – | – | – | crude HPLC purity [1]: 26%
Ac(R)-Bgl-D-Trp-Ala-Trp-D-Phe-Lys-NH2 | – | – | 20% | >99 | 7.4 | – | isolated yield (on Fmoc loading of Rink resin, formic acid salt (crude: TFA salt)): 7%
His-(S)-Agl-Ala-Trp-D-Phe-Lys-NH2 | >99 | 22 | – | – | – | – | crude HPLC purity [1]: 36%
D-Arg-D-Tyr-D-(S)-Bgl-Thr-D-Val-D-Glu-D-Leu-D-Ala-NH2 | – | – | 55% | >99 | 6 | – | crude mass (scale 0.052 mmol): 6 mg
D-Arg-D-Tyr-D-Thr-D-Val-D-Glu-(R)-Bgl-D-Ala-NH2 | – | – | 50% | >99 | 14 | – | crude mass (scale 0.105 mmol): 35 mg
His-D-Trp-(S)-Agl-Trp-D-Phe-Lys-NH2 | >99 | 11 | – | – | – | – | crude HPLC purity [2]: 22%
His-D-Trp-(R)-Agl-Trp-D-Phe-Lys-NH2 | – | 4 | – | – | – | >98 | crude HPLC purity [2]: 30%
His-(R)-Agl-Ala-Trp-D-Phe-Lys-NH2 | – | 12 | – | – | – | >99 | crude HPLC purity [2]: 45%
D-Arg-(R)-Bab-D-Thr-D-Val-D-Glu-D-Leu-D-Ala-NH2 | – | – | 45% of 55 crude mixture | >99 | 15 | – | –
D-Arg-D-Tyr-D-Thr-D-Val-(R)-Bgl-D-Leu-D-Ala-NH2 | – | – | 87% | >99 | 7 | – | crude mass (scale 0.098 mmol): 35 mg
His-D-Trp-Ala-(R)-Bgl-D-Phe-Lys-NH2 | – | 5 | – | – | – | >99 | crude HPLC purity [6]: 40%
D-Arg-D-Tyr-D-Thr-D-Val-(S)-Bgl-D-Glu-D-Leu-D-Ala-NH2 | – | – | 68% | >99 | 6 | – | crude mass (scale 0.058 mmol): 7 mg
D-Arg-(R)-Agl-D-Thr-D-Val-D-Glu-D-Leu-D-Ala-NH2 | >99 | 15 | – | – | – | – | crude HPLC purity [1]: 41%; difficulty met [3]: microwave assisted acylation required longer reaction times (>4 h) in the synthesis of analogs 55 and 56
(R)-Bgl-D-Tyr-D-Thr-D-Val-D-Glu-D-Leu-D-Ala-NH2 | – | – | – | – | – | >99 | crude HPLC purity [7]: 71%; crude HPLC purity [8]: 28%; isolated yield [9]: 10%; crude mass (scale 0.072 mmol, cyclic, sequence written open): 34 mg; isolated yield (scale 0.072 mmol, formic acid salt (crude: TFA salt), cyclic, sequence written open): 22%
His-D-Trp-(R)-Bgl-Trp-D-Phe-Lys-NH2 | – | – | – | – | – | >99 | crude HPLC purity [7]: 22%; crude HPLC purity [8]: 21%; crude purity (method not given) [10]: <10%; crude purity (method not given) [11]: 21%; isolated yield [12]: 7.9%; isolated yield [13]: 8%
D-Arg-D-Tyr-(R)-Bab-D-Val-D-Glu-D-Leu-D-Ala-NH2 | – | – | 27% of 56 crude mixture | >99 | 3 | – | –
D-Arg-D-Tyr-D-Thr-(R)-Bgl-D-Glu-D-Leu-D-Ala-NH2 | – | – | – | – | – | >99 | crude HPLC purity [7]: 79%; crude HPLC purity [8]: 6%; isolated yield [9]: 4%; crude mass (scale 0.087 mmol, cyclic, sequence written open): 62 mg; isolated yield (scale 0.087 mmol, formic acid salt (crude: TFA salt), cyclic, sequence written open): 17%
His-D-Trp-Ala-(S)-Agl-D-Phe-Lys-NH2 | >99 | 11 | – | – | – | – | crude HPLC purity [2]: 66%
D-Arg-(S)-Bgl-D-Thr-D-Val-D-Glu-D-Leu-D-Ala-NH2 | – | – | 82% | >99 | 16 | – | crude mass (scale 0.105 mmol): 33 mg
(R)-Agl-D-Trp-Ala-Trp-D-Phe-Lys-NH2 | – | 14 | – | – | – | >93 | crude HPLC purity [2]: 19%
(S)-Agl-D-Trp-Ala-Trp-D-Phe-Lys-NH2 | >99 | 8 | – | – | – | – | crude HPLC purity [1]: 30%
His-(R)-Bgl-Ala-Trp-D-Phe-Lys-NH2 | – | – | – | – | – | >99 | crude HPLC purity [7]: 31%; crude HPLC purity [8]: 35%; crude purity (method not given) [10]: <10%; crude purity (method not given) [11]: 35%; isolated yield [12]: 7.8%; isolated yield [13]: 8%
His-D-Trp-Ala-(R)-Agl-D-Phe-Lys-NH2 | – | 11 | – | – | – | >99 | crude HPLC purity [2]: 61%
D-Arg-D-Tyr-D-Thr-(S)-Bgl-D-Val-D-Glu-D-Leu-D-Ala-NH2 | – | – | 71% | >99 | 10 | – | crude mass (scale 0.055 mmol): 16 mg
(R)-Bab-D-Tyr-D-Thr-D-Val-D-Glu-D-Leu-D-Ala-NH2 | – | – | 28% of 54 crude mixture | >99 | 10 | – | –
D-Arg-D-Tyr-D-Thr-D-Val-D-Glu-(R)-Agl-D-Ala-NH2 | >99 | 7 | – | – | – | – | crude HPLC purity [1]: 81% crude purity
D-Arg-D-Tyr-(R)-Agl-D-Val-D-Glu-D-Leu-D-Ala-NH2 | >99 | 7 | – | – | – | – | crude HPLC purity [1]: 58%; difficulty met [3]: microwave assisted acylation required longer reaction times (>4 h) in the synthesis of analogs 55 and 56
(R)-Bgl-D-Trp-Ala-Trp-D-Phe-Lys-NH2 | – | 5 | – | – | – | >97 | crude HPLC purity [6]: 30%
D-Arg-D-Tyr-D-Thr-D-Val-D-Glu-(S)-Bgl-D-Ala-NH2 | – | – | 96% | >99 | 11 | – | crude mass (scale 0.105 mmol): 29 mg
